Data from article PMC11164484.
These are yes or no findings as the source states them, for the method shown. In cells and extracts the contact can be indirect. Some binding calls cover weakened binding; strength is not graded here.

Target: ferritin heavy chain 1 (FTH1) (human (endogenous in BMSCs)) (UniProt P02794)
Test: co-IP; co-IP in BMSCs with CRYAB antibody or FTH1 antibody for immunoprecipitation, Western blot detection

B1: Crystallin Alpha B (CRYAB) (protein, UniProt P02511 1-175)
chain: MDIAIHHPWIRRPFFPFHSPSRLFDQFFGEHLLESDLFPTSTSLSPFYLRPPSFLRAPSWFDTGLSEMRLEKDRFSVNLDVKHFSPEELKVKVLGDVIEVHGKHEERQDEHGFISREFHRKYRIPADVDPLTITSSLSSDGVLTVNGPRKQVSGPERTIPITREEKPAVTAAPKK
binding: binds
